These are yes or no findings as the source states them, for the method shown. Binding seen in cells or lysates may run through a third protein. Some entries that bind do so weakly or less than the wild type. Blank lines part the entries; values can stand above or below the molecule they belong to.
Assays:
[1] = molecular target: Kv1.3 channel, endogenous in mouse brain (mouse (endogenous in olfactory bulb and hippocampus)) (UniProt P16390); experiment: co-IP; lysates of olfactory bulb or hippocampus of P20 C57BL/6 mice; IP with anti-Kv1.3 (AU13) or anti-TrkB, protein A-sepharose, Western blot with anti-TrkB, anti-Shc or anti-Grb10
[2] = molecular target: TrkB kinase, endogenous in mouse brain (mouse (endogenous in olfactory bulb and hippocampus)) (UniProt P15209); experiment: as above
myc-tagged Kv1.3 channel = myc-tagged Kv1.3 channel (UniProt P15384); experiment: co-IP; HEK 293 cells transiently transfected with channel, kinase and adaptor cDNAs, stimulated with BDNF or vehicle for 10 minutes; lysis in 1% Triton X-100 buffer; IP with anti-myc (Kv1.3), anti-Grb10 or anti-TrkB, protein A-sepharose, Western blot; for nShc also with TrkB or Y490F TrkB (TrkBShc-) co-transfected

Amino acid sequences for entries named in this document (tags omitted). Residues count along the entry.
UniProt P16390: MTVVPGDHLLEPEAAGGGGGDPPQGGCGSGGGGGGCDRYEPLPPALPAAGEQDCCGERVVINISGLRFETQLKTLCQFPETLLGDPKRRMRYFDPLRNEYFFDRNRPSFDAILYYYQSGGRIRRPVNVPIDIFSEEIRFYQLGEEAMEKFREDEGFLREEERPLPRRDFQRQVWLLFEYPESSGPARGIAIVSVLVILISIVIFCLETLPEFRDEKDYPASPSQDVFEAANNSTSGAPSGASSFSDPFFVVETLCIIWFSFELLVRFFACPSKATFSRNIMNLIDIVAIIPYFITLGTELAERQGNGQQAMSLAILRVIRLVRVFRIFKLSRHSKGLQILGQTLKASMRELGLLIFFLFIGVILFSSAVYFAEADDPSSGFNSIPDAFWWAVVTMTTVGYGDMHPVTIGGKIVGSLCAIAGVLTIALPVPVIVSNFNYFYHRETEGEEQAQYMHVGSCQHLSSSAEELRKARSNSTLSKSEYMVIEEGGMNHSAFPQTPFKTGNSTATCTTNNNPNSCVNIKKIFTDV
UniProt P15209, residues 32-821: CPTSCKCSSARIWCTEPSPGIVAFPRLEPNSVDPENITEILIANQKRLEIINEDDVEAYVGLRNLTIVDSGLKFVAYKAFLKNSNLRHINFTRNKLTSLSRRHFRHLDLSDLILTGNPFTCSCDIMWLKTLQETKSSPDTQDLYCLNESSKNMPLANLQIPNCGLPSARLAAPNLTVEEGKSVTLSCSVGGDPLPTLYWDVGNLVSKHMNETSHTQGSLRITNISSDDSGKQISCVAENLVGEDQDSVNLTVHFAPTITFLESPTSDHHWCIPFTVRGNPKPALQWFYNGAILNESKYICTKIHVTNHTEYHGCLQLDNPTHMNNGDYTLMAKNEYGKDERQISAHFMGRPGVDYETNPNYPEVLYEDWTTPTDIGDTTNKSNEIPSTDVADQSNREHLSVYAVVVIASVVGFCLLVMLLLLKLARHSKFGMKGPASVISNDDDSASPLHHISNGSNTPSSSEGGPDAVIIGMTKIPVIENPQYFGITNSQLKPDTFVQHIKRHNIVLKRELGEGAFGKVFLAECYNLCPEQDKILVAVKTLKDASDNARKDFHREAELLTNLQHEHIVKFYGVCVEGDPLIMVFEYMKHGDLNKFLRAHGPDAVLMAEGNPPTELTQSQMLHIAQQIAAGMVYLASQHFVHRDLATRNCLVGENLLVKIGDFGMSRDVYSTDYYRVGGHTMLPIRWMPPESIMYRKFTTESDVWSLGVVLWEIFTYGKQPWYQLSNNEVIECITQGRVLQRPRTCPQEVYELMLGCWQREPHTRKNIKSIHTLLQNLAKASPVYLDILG
UniProt P15384: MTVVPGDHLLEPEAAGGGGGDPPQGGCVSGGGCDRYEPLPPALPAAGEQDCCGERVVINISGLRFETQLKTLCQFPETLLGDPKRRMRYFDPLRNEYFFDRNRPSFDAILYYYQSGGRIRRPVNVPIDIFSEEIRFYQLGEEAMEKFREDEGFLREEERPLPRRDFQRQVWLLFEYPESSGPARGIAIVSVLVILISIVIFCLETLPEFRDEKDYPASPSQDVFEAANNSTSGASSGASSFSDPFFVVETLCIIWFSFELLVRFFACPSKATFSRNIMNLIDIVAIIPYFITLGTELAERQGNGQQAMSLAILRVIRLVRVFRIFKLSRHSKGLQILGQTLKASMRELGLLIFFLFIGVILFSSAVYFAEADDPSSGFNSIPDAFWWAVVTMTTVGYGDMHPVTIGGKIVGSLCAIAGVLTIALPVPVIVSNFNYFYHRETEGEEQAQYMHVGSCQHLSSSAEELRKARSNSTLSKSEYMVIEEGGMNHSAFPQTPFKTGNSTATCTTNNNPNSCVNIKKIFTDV

binding [1]: binds
Molecule: TrkB kinase, endogenous in mouse brain (from UniProt P15209 32-821) (receptor)

binding [2]: binds | binding [1]: binds
B1: Grb10 adaptor protein, endogenous in mouse brain (protein, UniProt Q60760 1-621)
chain: MNNDINSSVESLNSACNMQSDTDTAPLLEDGQHASNQGAASSSRGQPQASPRQKMQRSQPVHILRRLQEEDQQLRTASLPAIPNPFPELTGAAPGSPPSVAPSSLPPPPSQPPAKHCGRCEKWIPGENTRGNGKRKIWRWQFPPGFQLSKLTRPGLWTKTTARFSKKQPKNQCPTDTVNPVARMPTSQMEKLRLRKDVKVFSEDGTSKVVEILTDMTARDLCQLLVYKSHCVDDNSWTLVEHHPQLGLERCLEDHEIVVQVESTMPSESKFLFRKNYAKYEFFKNPVNFFPDQMVNWCQQSNGGQAQLLQNFLNTSSCPEIQGFLQVKEVGRKSWKKLYVCLRRSGLYYSTKGTSKEPRHLQLLADLEESSIFYLIAGKKQYNAPNEHGMCIKPNKAKTEMKELRLLCAEDEQIRTCWMTAFRLLKYGMLLYQNYRIPQRKGLPPPFNAPMRSVSENSLVAMDFSGQIGRVIDNPAEAQSAALEEGHAWRKRSTRMNILSSQSPLHPSTLNAVIHRTQHWFHGRISREESHRIIKQQGLVDGLFLLRDSQSNPKAFVLTLCHHQKIKNFQILPCEDDGQTFFTLDDGNTKFSDLIQLVDFYQLNKGVLPCKLKHHCIRVAL

binding (myc-tagged Kv1.3 channel): binds
B2: neuronal Src homology and collagen (nShc), transfected (protein, UniProt Q92529 1-594)
chain: MLPRTKYNRFRNDSVTSVDDLLHSLSVSGGGGKVSAARATPAAAPYLVSGEALRKAPDDGPGSLGHLLHKVSHLKLSSSGLRGLSSAARERAGARLSGSCSAPSLAAPDGSAPSAPRAPAMSAARKGRPGDEPLPRPPRGAPHASDQVLGPGVTYVVKYLGCIEVLRSMRSLDFSTRTQITREAISRVCEAVPGAKGAFKKRKPPSKMLSSILGKSNLQFAGMSISLTISTASLNLRTPDSKQIIANHHMRSISFASGGDPDTTDYVAYVAKDPVNRRACHILECCDGLAQDVIGSIGQAFELRFKQYLQCPTKIPALHDRMQSLDEPWTEEEGDGSDHPYYNSIPSKMPPPGGFLDTRLKPRPHAPDTAQFAGKEQTYYQGRHLGDTFGEDWQQTPLRQGSSDIYSTPEGKLHVAPTGEAPTYVNTQQIPPQAWPAAVSSAESSPRKDLFDMKPFEDALKNQPLGPVLSKAASVECISPVSPRAPDAKMLEELQAETWYQGEMSRKEAEGLLEKDGDFLVRKSTTNPGSFVLTGMHNGQAKHLLLVDPEGTIRTKDRVFDSISHLINHHLESSLPIVSAGSELCLQQPVERKQ

Source: publication PMC2656512
